# Hit rate of the full screen: of about 24,000 compounds, fewer than 10 were called active. The shares of active, inactive and inconclusive entries below differ from those in the screen.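 The calls were made as follows: active = fluorescent ligand binding to cells raised by more than 40% of the manganese-induced maximum; inconclusive = compound's own fluorescence above 85% of the ligand control signal; inactive = the rest.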
# Protein sequences, listed by entry. Tags and fused reporters are not part of them.
# UniProt P13612, whole entry, looked up: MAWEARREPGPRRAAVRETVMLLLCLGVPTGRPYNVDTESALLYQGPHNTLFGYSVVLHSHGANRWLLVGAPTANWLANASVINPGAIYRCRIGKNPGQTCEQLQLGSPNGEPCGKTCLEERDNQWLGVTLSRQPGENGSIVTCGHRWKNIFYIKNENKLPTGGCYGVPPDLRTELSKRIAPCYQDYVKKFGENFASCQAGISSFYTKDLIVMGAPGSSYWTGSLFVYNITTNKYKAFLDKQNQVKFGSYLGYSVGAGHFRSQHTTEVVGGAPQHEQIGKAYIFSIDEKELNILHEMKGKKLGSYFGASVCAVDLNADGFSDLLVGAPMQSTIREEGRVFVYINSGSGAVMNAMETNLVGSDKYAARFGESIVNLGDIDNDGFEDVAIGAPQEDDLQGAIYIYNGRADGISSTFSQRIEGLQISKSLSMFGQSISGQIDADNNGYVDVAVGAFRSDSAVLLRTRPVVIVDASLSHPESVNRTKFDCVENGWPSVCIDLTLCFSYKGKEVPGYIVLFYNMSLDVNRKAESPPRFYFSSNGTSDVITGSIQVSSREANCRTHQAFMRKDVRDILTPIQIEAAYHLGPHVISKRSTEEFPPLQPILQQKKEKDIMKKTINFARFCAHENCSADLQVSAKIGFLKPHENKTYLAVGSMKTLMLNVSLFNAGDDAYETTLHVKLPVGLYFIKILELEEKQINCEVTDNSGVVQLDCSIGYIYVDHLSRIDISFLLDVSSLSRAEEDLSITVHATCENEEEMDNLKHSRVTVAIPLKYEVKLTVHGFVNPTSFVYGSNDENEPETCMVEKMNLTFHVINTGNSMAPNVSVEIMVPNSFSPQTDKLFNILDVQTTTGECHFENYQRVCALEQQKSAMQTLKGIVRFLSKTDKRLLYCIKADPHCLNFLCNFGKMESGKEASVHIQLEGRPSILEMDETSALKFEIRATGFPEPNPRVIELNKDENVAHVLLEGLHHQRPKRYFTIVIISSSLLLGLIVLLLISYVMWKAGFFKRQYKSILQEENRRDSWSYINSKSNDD
# Biological target: Integrin alpha-4 (Homo sapiens) (UniProt P13612)
# Experiment: enhancers of LDV-FITC binding to VLA-4 integrin, primary screen, Jurkat cells, flow cytometry (AID 528);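 as to activation: 0% = ligand binding without compound and 100% = manganese-stimulated maximal binding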
# Conditions: active compounds read high, screened at 10 µM (by protocol)
row,SMILES,activation
1,CN(C(=O)CSc1nc2c(c(=O)[nH]1)CCCC2)C1CCCCC1,inconclusive
2,CSc1cccc(NC(=O)C2CCCN2S(=O)(=O)c2ccc3c(c2)CCC(=O)N3)c1 (centres undefined),inconclusive
3,Cc1ccc(C)c(S(=O)(=O)C(C#N)c2nc3ccccc3nc2N2CC(C)OC(C)C2)c1 (centres undefined),inconclusive
4,COc1ccc(N2CSC3=C(C#N)C(c4cc(OC)ccc4OC)CC(=O)N3C2)c(OC)c1 (centres undefined),inconclusive
5,O=C1NC(c2ccccn2)Nc2sc3c(c21)CCC3 (centres undefined),inconclusive
6,COc1ccc(Cl)cc1NC(=O)c1nc2nc(C)cc(C(F)F)n2n1,inactive: 2%
7,O=C(Nc1nonc1NC(=O)C1CCCCC1)C1CCCCC1,inactive: 5%
8,CCC(C)NC(=O)CCNS(=O)(=O)c1ccc(Br)cc1 (centres undefined),inactive: -1.7%
9,CC1=C(C(=O)Nc2ccccc2C)C(c2ccc(C)o2)N2C(=O)CSC2=N1 (centres undefined),inactive: 8%
10,CCCC(=O)Nc1sc(C(=O)OC)c(C)c1C(N)=O,inconclusive
11,CSc1nnc(Cn2c(=O)sc3ccccc32)n1C,inconclusive
12,Cc1cc2cc(CCNS(C)(=O)=O)c(=O)[nH]c2cc1C,inconclusive
13,C=CCNC(=O)CCCCCNS(=O)(=O)c1ccc(OC)cc1,inconclusive
14,O=C(CNS(=O)(=O)c1ccc(Br)s1)N1CCC(N2CCCCC2)CC1,inactive: 6%
15,Cc1ccccc1CSc1nnc(Cn2c(=O)sc3ccccc32)n1C,inactive: 4%
16,CC(C)Cc1cc(C(=O)Nc2sc3c(c2C#N)CCCC3)no1,inactive: 14%
17,O=C(Nc1cccnc1)C(Cc1ccccc1)n1cccc1 (centres undefined),inconclusive
18,Cc1nc2sc(C(c3ccco3)N3CCc4ccccc4C3)c(O)n2n1 (centres undefined),inconclusive
19,CC1=Nc2ccc(C)cc2N(Cc2ccccc2)C(=O)C1,inconclusive
20,CCOC(=O)c1nnn(-c2nonc2N)c1-c1ccc(OC)cc1,inactive: 5%
21,CC1CN(S(=O)(=O)c2ccc(NC(=O)CCN3C(=O)c4ccccc4C3=O)cc2)CC(C)O1 (centres undefined),inconclusive
22,COc1ccc(-n2nnc3c(SCC(=O)N4CCCc5ccccc54)ncnc32)cc1,inconclusive
23,CCOC(=O)c1cc2c(=O)n3ccccc3nc2n(CCCOC)c1=NC(C)=O,inconclusive
24,COC(=O)c1cc2oc(C)cc2n1CC(=O)N1CCCc2ccccc21,inconclusive
25,COc1ccccc1OCc1ccc(C(=O)N2CCN3CCCC3C2)cc1 (centres undefined),inactive: 7%

row,SMILES,activation
1,COc1ccc(C2C=C(c3cccs3)Nc3nc(CCCO)nn32)cc1 (centres undefined),inconclusive
2,CCCn1c(CNC(=O)Cc2ccccc2)nc2ccccc21,inactive: -3%
3,COc1ccc(CCNC(=O)Cn2cnc3c2c(=O)n(C)c(=O)n3C)cc1OC,inconclusive
4,CCOc1cc2[nH]c(=O)n(CC3CCC(C(=O)NCCC(C)C)CC3)c(=O)c2cc1OCC (centres undefined),inactive: -26%
5,CC1CC(C)CN(CCCNC(=O)C2CCCN(c3nnc(N4CCCC4=O)s3)C2)C1 (centres undefined),inactive: -2%
6,CCCCNC(=O)CC(=O)Nc1ccccc1C(=O)O,inactive: 5%
7,CN(C)S(=O)(=O)c1ccc(/C(O)=C2/C(=O)C(=O)N(CCN3CCCCC3)C2c2cccnc2)cc1 (centres undefined),inactive: 4%
8,COC(=O)C1=C(C)C(c2cccs2)NC(=O)N1C (centres undefined),inactive: -5.5%
9,CCCCN(CC)CCNS(=O)(=O)c1ccc2c(c1)oc(=O)n2C,inconclusive
10,c1ccc2c(c1)nc(N1CCN(C3CCCCC3)CC1)c1nnnn12,inconclusive
11,CCn1ccnc1C(O)c1cccc(OC)c1OC (centres undefined),inconclusive
12,CCc1nn(C(C)C(=O)N2CCN(Cc3ccccc3)CC2)c(=O)c2cc3occc3n12 (centres undefined),inconclusive
13,COc1cccc(C2N(c3ccc(Cl)cc3)C(=O)C3CCCN32)c1 (centres undefined),inconclusive
14,S=C1SCN(CCN2CCOCC2)CN1Cc1ccccc1,inactive: -3%
15,CN1CC=C2C(C#N)=C(N)C(C#N)(C#N)[C@H](c3cccc(Cl)c3)C2C1 (some centres undefined),inconclusive
16,Cn1nnnc1SCC(=O)Nc1ccccc1C(=O)NCc1ccccc1,inactive: -2%
17,COc1ccc(Cn2nnc3c(=O)[nH]c(C4CCN(C(=O)c5ccccc5Cl)CC4)nc32)cc1,inconclusive
18,O=C(CSC1=NCCS1)Nc1nc2c(s1)CCCC2,inconclusive
19,CCN(CC)c1ccc(NC(=O)c2cnc3ccccn3c2=O)c(C)c1,inconclusive
20,COc1cccc(N2CCN(C(=O)CN(c3ccc(C)cc3)S(=O)(=O)c3c(C)n[nH]c3C)CC2)c1,inconclusive
21,CCOC(=O)c1sc(NC(=O)CSc2nc3c(cc2C#N)CCC3)c(C#N)c1C,inactive: -0.5%
22,COC(=O)C1Sc2[nH]c(=O)sc2C2c3ccccc3OC(=O)C12 (centres undefined),inconclusive
23,CCOC(=O)c1sc2nc(CC(=O)OC)nc(NCCN3CCOCC3)c2c1C,inconclusive
24,COc1ccc(-n2c(=S)[nH]c3cc(C(=O)NCCCN4CCCC4=O)ccc3c2=O)cc1,inconclusive

# Part of the list above, with bars between the fields:
row | SMILES | activation
8 | COC(=O)C1=C(C)C(c2cccs2)NC(=O)N1C (centres undefined) | inactive: -5.5%
9 | CCCCN(CC)CCNS(=O)(=O)c1ccc2c(c1)oc(=O)n2C | inconclusive

# Source: PubChem BioAssay AID528 (NMMLSC, 2006)
